This is an account of results in PubChem BioAssay AID2685 (National Center for Advancing Translational Sciences (NCATS), 2010).

The other results are listed elsewhere or left out. Further columns of the screen follow, without active or inactive calls. Most of these compounds were active or inconclusive in the main read-out, so they are no random draw. Potencies come from curve fits of mixed quality, noted in brackets.

The assay in a line: qHTS Assay for Lipid Storage Modulators in Drosophila S3 Cells.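 For cell number change: cells counted by Cell Tracker Red CMTPX staining in the red channel.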 To be noted: BODIPY lipid droplet fluorescence, 18-24 h; for cell number change: measured here: cell count max response, cells fed with added oleic acid. The gist of the method: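 Laser-scanning cytometry quantifies lipid droplet accumulation (500–530 nm total intensity; droplet/cell object ratio) in oleic acid-fed (400 uM added) Drosophila S3 cells treated with a concentration series. 20 uM Triacsin C defined 100% inhibition.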

The mark [1] stands for this setting: measured here: cell number channel AC50, cells fed with added oleic acid.
The mark [2] stands for this setting: measured here: lipid fluorescence (Fed channel) AC50, cells fed with added oleic acid.

The term AC50 denotes the concentration giving half of the maximal activity seen. A higher AC50 goes with weaker potency. For `COc1ccc(/C=N/Nc2nc3ccccc3o2)cc1O`, the cell number change was found to be 19.5%. Also, the AC50 under setting [1] was 1.84 µM [rising, partial curve, poor fit].
Consider `COc1cc(S(=O)(=O)NCc2ccncc2)c(OC)cc1C`, for which the cell number change amounted to 11.5%. The AC50 under setting [2] is 0.731 µM [rising, partial curve].
Take `CCN(Cc1ccccc1)C(=O)c1ccc(Cl)cc1[N+](=O)[O-]`: the cell number change was -26.7%. Under setting [1], the half-maximal activity concentration (AC50) was 0.731 µM [falling, full curve, poor fit]. In addition, the AC50 under setting [2] is 0.731 µM [falling, partial curve, poor fit].
As to `O=C1NC(c2ccccc2)=C(c2nc3ccccc3s2)C(c2ccc(O)cc2)N1` (stereo not drawn), the cell number change is -64.9%. Besides, the AC50 under setting [1] was 23.1 µM [falling, single point]. The AC50 under setting [2] is 29.1 µM [falling, single point].
Regarding `COC(=O)C1=C(C)NC(=O)/C1=C\c1cc(C)n(-c2ccccc2C)c1C`, the cell number change is -59%. Also, the concentration at half-maximal activity (AC50) under setting [1] is 18.4 µM [falling, single point]. The AC50 under setting [2] is 9.2 µM [falling, partial curve, poor fit].
As for `Cc1nn(-c2ccc(F)cc2)c(Cl)c1/C=N/NC(=O)c1ccc(O)cc1`, the cell number change came to 10.3%.
`COc1ccccc1Nc1nc(N2CCOCC2)nc(N2CCOCC2)n1`: the cell number change was -11.5%. Under setting [2], the half-maximal activity concentration (AC50) was 18.4 µM [rising, single point].
`Cc1nn(CC(=O)NCc2ccc(C(=O)O)cc2)c(C)c1[N+](=O)[O-]`: the cell number change turned out to be 21.9%. Further, the half-maximal activity concentration (AC50) under setting [1] is 0.13 µM [falling, full curve, poor fit].
For `Cc1ccc(Nc2cc(C)c(O)c(C)c2)cc1`, the cell number change is -18.7%.
Regarding `O=C(CCCOc1ccc(Cl)cc1Cl)NNC(=O)C1CCC1`, the cell number change worked out at 50.4%. Under setting [1], the AC50 was 29.1 µM [rising, single point].
Take `CCSc1nc(-c2ccc(OC)cc2)n(-c2nc3ccccc3s2)n1`: the AC50 under setting [2] is 20.6 µM [rising, partial curve].
As for `Cc1ccc(-n2c(=O)c3sccc3n(CC(=O)NCc3ccco3)c2=O)cc1F`, the cell number change stood at 157%. Under setting [1], the AC50 was 20.6 µM [rising, single point]. Moreover, under setting [2], the half-maximal activity concentration (AC50) is 3.66 µM [rising, single point].
Consider `CCCC[C@H](CN[C@@H](CNC)[C@H](C)CC)NCCC12CCC(CC1)C2`, for which the cell number change is -7.78%.
As for `CCOC(=O)c1nnn(-c2nonc2N)c1COc1c(C=O)cccc1OC`, the cell number change was -34.3%. Moreover, the half-maximal activity concentration (AC50) under setting [2] was 0.13 µM [falling, full curve, poor fit].
For the compound `COCCCNC(=O)c1cc(C(=O)Cc2ccccc2)c[nH]1`, the cell number change worked out at 48.5%. Moreover, under setting [1], the AC50 was 7.31 µM [rising, full curve, poor fit].
For `CCC(O)CNc1nc(-n2nc(C)cc2C)nc2sc3c(c12)CC(C)(C)OC3` (stereo not drawn), the cell number change was 19.2%. Also, the AC50 under setting [2] is 1.3 µM [falling, full curve].
For `CC(NC(=O)c1ccnc(C(C)(C)C)c1)c1ccccc1` (stereo not drawn), the cell number change was -9.06%. Further, the AC50 under setting [2] is 20.6 µM [rising, single point].
In the case of `CCOC(=O)c1[nH]c(C)c(C(=O)NC2CCCC2)c1C`, the AC50 under setting [2] is 0.00461 µM [falling, full curve, poor fit].
As for `CC(=O)NC(CC(=O)OC(C)C(=O)Nc1ccc(Cl)cn1)c1ccccc1` (stereo not drawn), the cell number change was 43%. In addition, the half-maximal activity concentration (AC50) under setting [1] is 9.2 µM [rising, partial curve].
In the case of `COc1cc(SSc2cc(OC)cc([N+](=O)[O-])c2N)c(N)c([N+](=O)[O-])c1`, the cell number change is -56.9%. In addition, the AC50 under setting [1] is 13 µM [falling, partial curve]. Besides, the concentration at half-maximal activity (AC50) under setting [2] was 18.4 µM [falling, partial curve].
In the case of `CCOC(=O)N1CCN(c2cc3[nH]c(=S)[nH]c3cc2F)CC1`, the cell number change amounted to 101%. Under setting [1], the AC50 is 13 µM [rising, partial curve, poor fit]. In addition, the AC50 under setting [2] is 6.51 µM [rising, partial curve, poor fit].
Consider `COc1ccc(S(=O)(=O)N(CC(=O)NC2CC2)C2CCCCC2)cc1Cl`, for which the cell number change was 2.23%. Besides, the half-maximal activity concentration (AC50) under setting [2] was 20.6 µM [rising, single point].
For `COc1ccc(C(=O)Nc2nc3nc(-c4ccccc4)cc(=O)n3[nH]2)cc1`, the cell number change is -99.5%. Moreover, under setting [1], the AC50 was 13 µM [falling, partial curve]. Moreover, the AC50 under setting [2] was 14.6 µM [falling, partial curve].
With `COc1ccc(C)cc1S(=O)(=O)n1cnc2ccccc21`, the cell number change is 24.9%. Also, under setting [2], the concentration at half-maximal activity (AC50) is 7.31 µM [rising, partial curve, poor fit].
Take `CN(CC1COc2ccccc2O1)C(=O)c1ccc(N(C)C)cc1` (stereo not drawn): the half-maximal activity concentration (AC50) was 6.51 µM [rising, single point] under setting [1] and 18.4 µM [rising, partial curve] under setting [2].
Take `CN1C(=O)C(C)(C)c2cc(S(=O)(=O)N(C)Cc3ccccc3)ccc21`: the cell number change is -18.2%. Besides, under setting [2], the AC50 is 3.26 µM [falling, full curve].
Turning to `CCOC(=O)Cn1c(=O)cc(C)c2ccccc21`, the cell number change turned out to be 44.5%.
For `CCC1=NN(C(=O)C(=O)Nc2ccc(OC)cc2)C(O)(C(F)(F)F)C1` (stereo not drawn), the cell number change was 121%. Besides, the AC50 under setting [1] is 0.731 µM [rising, single point].
For `CC(Oc1ccc(Br)cc1)C(=O)Nc1cc(S(=O)(=O)N2CCOCC2)ccc1N1CCCC1` (stereo not drawn), under setting [1], the half-maximal activity concentration (AC50) was 2.31 µM [rising, partial curve, poor fit].
Consider `Cc1ccc(S(=O)(=O)N2Cc3ccccc3CC2C(=O)Nn2cnnc2)cc1` (stereo not drawn), for which the cell number change was found to be 20.2%. Further, the half-maximal activity concentration (AC50) under setting [1] is 0.103 µM [rising, full curve, poor fit].
Take `CCCc1nnc(NC(=O)CCC(=O)N2CCN(C3c4ccccc4-c4ccccc43)CC2)s1`: the cell number change was determined as 3.61%.
Regarding `O=C(Cc1ccccc1)n1nc(-c2ccco2)nc1SCc1ccccc1`, the cell number change is -23%. Besides, under setting [1], the AC50 was 0.13 µM [falling, full curve]. For the same compound, the AC50 under setting [2] was 0.184 µM [falling, full curve].
On to `O=C(NCc1ccc2c(c1)OCO2)c1cc2ccccc2oc1=O`, for which the cell number change was -8.73%. Also, the AC50 under setting [1] was 6.51 µM [falling, single point]. In addition, the AC50 under setting [2] was 6.51 µM [falling, single point].
Regarding `Cc1cc(C(=O)NNc2ccc(F)cc2)no1`, the cell number change was -52.4%. The half-maximal activity concentration (AC50) under setting [1] is 20.6 µM [falling, single point]. Further, under setting [2], the AC50 was 16.4 µM [falling, single point].
With `COc1cccc(C(=O)Oc2cc(N)n(S(=O)(=O)c3ccc(C)cc3)n2)c1OC`, the cell number change was -4.6%. Under setting [2], the concentration at half-maximal activity (AC50) is 5.8 µM [falling, full curve, poor fit].
With `Cc1nn(C)c(C(=O)Nc2cccc(Nc3ccccc3)c2)c1[N+](=O)[O-]`, the cell number change was -16%.
